Experimental data taken from PMC4966312.
Substitutions are numbered along the chain they refer to. No constants are given. Whether binding was seen depends on the method and setting. For part of these data: Binding seen in cells or lysates may run through a third protein. Some results given as binding are weak or reduced against the parent protein; the word gives no strength. Sequences can lack the tags named with a protein.

How the values were obtained:
[1] = target: T1, NSMCE3 Leu264Phe fused to the Gal4 DNA-binding domain (human) (UniProt Q96MG7); assay: two-hybrid; NSMCE3 (WT or mutated) fused to the Gal4 DNA-binding domain, NSMCE1 or NSMCE4 fused to the Gal4-activation domain, coexpressed in yeast; scored on His- plates with 5 mM 3-amino-1,2,4-triazol; 30°C
T1 sequence: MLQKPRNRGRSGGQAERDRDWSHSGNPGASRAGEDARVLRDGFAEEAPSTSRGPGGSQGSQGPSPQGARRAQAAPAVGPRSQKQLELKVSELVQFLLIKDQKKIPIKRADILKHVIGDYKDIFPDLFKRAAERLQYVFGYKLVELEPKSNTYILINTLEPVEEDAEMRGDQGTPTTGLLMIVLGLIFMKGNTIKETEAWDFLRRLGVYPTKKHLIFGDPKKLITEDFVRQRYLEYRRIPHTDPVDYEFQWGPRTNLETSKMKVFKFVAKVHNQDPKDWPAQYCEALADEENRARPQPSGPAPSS

[2] = target: T2, NSMCE3 (WT) fused to the Gal4 DNA-binding domain (human) (UniProt Q96MG7); assay: as above
T2 sequence: T1 sequence with F264L

[3] = target: T3, GFP-tagged NSMCE3 (WT) (human) (UniProt Q96MG7); assay: co-IP; GFP-tagged NSMCE3 expressed in U2OS cells (with Myc-NSMCE1 or alone), lysate adjusted to 150 mM NaCl, GFP-Trap_MA beads, 4°C for 2 hours, immunoblotting
T3 sequence: T1 sequence with F264L

[4] = target: T4, GFP-tagged NSMCE3 Leu264Phe (human) (UniProt Q96MG7); assay: as above
T4 sequence: T1 sequence

[5] = target: T5, His-tagged NSMCE3 (WT), recombinant human (human) (UniProt Q96MG7); assay: SEC; purified NSMCE1-NSMCE3 complex on Superdex 200 Increase 5/150 GL in 20 mM HEPES.NaOH pH 7.5, 250 mM NaCl, 0.5 mM TCEP; both purified
T5 sequence: T1 sequence with F264L

[6] = target: T6, His-tagged NSMCE3 Leu264Phe, recombinant human (human) (UniProt Q96MG7); assay: as above
T6 sequence: T1 sequence

[7] = target: T5, His-tagged NSMCE3 (WT), recombinant human (human); assay: co-purification of co-expressed proteins; untagged NSMCE1 and His-tagged NSMCE3 coexpressed in and purified from E. coli; Coomassie-stained SDS-PAGE and immunodetection of the His tag
[8] = target: T6, His-tagged NSMCE3 Leu264Phe, recombinant human (human); assay: as above

B1: WT NSMCE1 fused to the Gal4-activation domain (protein, UniProt Q8WV22 1-266)
chain: MQGSTRRMGVMTDVHRRFLQLLMTHGVLEEWDVKRLQTHCYKVHDRNATVDKLEDFINNINSVLESLYIEIKRGVTEDDGRPIYALVNLATTSISKMATDFAENELDLFRKALELIIDSETGFASSTNILNLVDQLKGKKMRKKEAEQVLQKFVQNKWLIEKEGEFTLHGRAILEMEQYIRETYPDAVKICNICHSLLIQGQSCETCGIRMHLPCVAKYFQSNAEPRCPHCNDYWPHEIPKVFDPEKERESGVLKSNKKSLRSRQH
In the case of B1, the binding [1] is reported as “binds” and the binding [2] is reported as “binds”.

B2: Myc-tagged NSMCE1 (protein, UniProt Q8WV22 1-266)
chain: B1 chain
For B2, the binding [3] was “binds” and the binding [4] was “binds”.

B3: SMC6 (protein, UniProt Q96SB8 1-1091)
chain: MAKRKEENFSSPKNAKRPRQEELEDFDKDGDEDECKGTTLTAAEVGIIESIHLKNFMCHSMLGPFKFGSNVNFVVGNNGSGKSAVLTALIVGLGGRAVATNRGSSLKGFVKDGQNSADISITLRNRGDDAFKASVYGNSILIQQHISIDGSRSYKLKSATGSVVSTRKEELIAILDHFNIQVDNPVSVLTQEMSKQFLQSKNEGDKYKFFMKATQLEQMKEDYSYIMETKERTKEQIHQGEERLTELKRQCVEKEERFQSIAGLSTMKTNLESLKHEMAWAVVNEIEKQLNAIRDNIKIGEDRAARLDRKMEEQQVRLNEAEQKYKDIQDKLEKISEETNARAPECMALKADVVAKKRAYNEAEVLYNRSLNEYKALKKDDEQLCKRIEELKKSTDQSLEPERLERQKKISWLKERVKAFQNQENSVNQEIEQFQQAIEKDKEEHGKIKREELDVKHALSYNQRQLKELKDSKTDRLKRFGPNVPALLEAIDDAYRQGHFTYKPVGPLGACIHLRDPELALAIESCLKGLLQAYCCHNHADERVLQALMKRFYLPGTSRPPIIVSEFRNEIYDVRHRAAYHPDFPTVLTALEIDNAVVANSLIDMRGIETVLLIKNNSVARAVMQSQKPPKNCREAFTADGDQVFAGRYYSSENTRPKFLSRDVDSEISDLENEVENKTAQILNLQQHLSALEKDIKHNEELLKRCQLHYKELKMKIRKNISEIRELENIEEHQSVDIATLEDEAQENKSKMKMVEEHMEQQKENMEHLKSLKIEAENKYDAIKFKINQLSELADPLKDELNLADSEVDNQKRGKRHYEEKQKEHLDTLNKKKRELDMKEKELEEKMSQARQICPERIEVEKSASILDKEINRLRQKIQAEHASHGDREEIMRQYQEARETYLDLDSKVRTLKKFIKLLGEIMEHRFKTYQQFRRCLTLRCKLYFDNLLSQRAYCGKMNFDHKNETLSISVQPGEGNKAAFNDMRALSGGERSFSTVCFILSLWSIAESPFRCLDEFDVYMDMVNRRIAMDLILKMADSQRFRQFILLTPQSMSSLPSSKLIRILRMSDPERGQTTLPFRPVTQEEDDDQR
For B3, the binding [4] was “binds”.

B4: NSMCE1 (untagged), recombinant human (protein, UniProt Q8WV22 1-266)
chain: B1 chain
In the case of B4, the binding [5] is reported as “binds”, the binding [6] is reported as “binds” and the binding [7] is reported as “binds”. The binding [8] was “binds”.
